Results published in patent US20260325510A1, “COMBINATIONS COMPRISING AN ATR INHIBITOR AND A PARP INHIBITOR AND METHODS OF USE THEREOF” (Jazz Pharmaceuticals Therapeutics, Inc., priority 2023, published 2026).

Experiment: Hematology tolerability study
Assay type: in vivo, female C57BL/6 mice
Settings: free ATR inhibitor in combination with free niraparib
Protocol: In order to study the effects of hematology tolerability under different dosing regimens, 8-12 week old, female C57BL/6 mice were used. Body weight was measured qd×5, then biweekly to the end of the study. Animals were weighed and monitored for survival and in-life observations were collected at the time of weight measurement. Mice were organized into appropriate groups consisting of control (empty vehicle) and treatment groups including free niraparib, free niraparib plus Berzosertib, free niraparib plus Elimusertib and a combination of free niraparib and liposomal Compound A. Mice were given orally, or injected intravenously, with the required volume of sample to administer the prescribed dose to the animals based on individual mouse weights on dosing days. Mice were monitored individually to endpoint which was 18 days. Full volume blood was collected by terminal cardiac puncture under isoflurane anesthesia and analyzed for reticulocyte count/number, red blood cell count/number, hemoglobin, hematocrit, platelet count/number, white blood cell count/number, neutrophil count/number, monocyte count/number and lymphocyte count/number.

With `C[C@@H]1COCCN1c1cc(-c2ccnn2C)c2ccnc(-c3ccn[nH]3)c2n1` [elimusertib] the hematological toxicity was “severe reticulocytopenia and leukopenia”.
